The assay has as its target shootin1b (endogenous, mouse dendritic cells) (mouse (endogenous in bone marrow-derived dendritic cells)) (UniProt Q8K2Q9). As to the kind of experiment: co-IP; lysates (NP40-Triton lysis buffer) of mouse dendritic cells treated with 0, 20 or 200 ng/mL CCL19 for 30 min; anti-shootin1 antibody or isotype control IgG, protein G-sepharose; immunoblot with anti-shootin1b, anti-L1, anti-cortactin. On the technique in general: In western blotting, separated proteins are transferred to a membrane and probed.

Amino acid sequences for entries named in this document (tags omitted). Residues count along the entry.
UniProt Q8K2Q9: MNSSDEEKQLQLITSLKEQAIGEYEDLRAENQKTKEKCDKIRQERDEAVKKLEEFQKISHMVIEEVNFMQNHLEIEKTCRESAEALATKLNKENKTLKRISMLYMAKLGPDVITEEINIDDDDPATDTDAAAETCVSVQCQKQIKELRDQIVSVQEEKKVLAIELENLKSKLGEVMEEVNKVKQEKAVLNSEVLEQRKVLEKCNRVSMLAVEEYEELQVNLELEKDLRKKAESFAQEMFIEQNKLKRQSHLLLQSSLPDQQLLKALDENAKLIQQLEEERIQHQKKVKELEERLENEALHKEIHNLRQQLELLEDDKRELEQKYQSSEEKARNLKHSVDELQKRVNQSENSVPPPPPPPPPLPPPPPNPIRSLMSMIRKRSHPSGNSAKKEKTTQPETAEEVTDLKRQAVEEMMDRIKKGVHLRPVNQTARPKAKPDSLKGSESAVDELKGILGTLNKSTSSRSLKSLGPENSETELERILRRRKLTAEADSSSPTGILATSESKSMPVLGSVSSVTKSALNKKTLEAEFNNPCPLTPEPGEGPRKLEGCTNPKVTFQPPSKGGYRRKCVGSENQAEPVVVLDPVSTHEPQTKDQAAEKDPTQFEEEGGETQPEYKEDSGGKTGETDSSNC
UniProt P11627, residues 20-1260: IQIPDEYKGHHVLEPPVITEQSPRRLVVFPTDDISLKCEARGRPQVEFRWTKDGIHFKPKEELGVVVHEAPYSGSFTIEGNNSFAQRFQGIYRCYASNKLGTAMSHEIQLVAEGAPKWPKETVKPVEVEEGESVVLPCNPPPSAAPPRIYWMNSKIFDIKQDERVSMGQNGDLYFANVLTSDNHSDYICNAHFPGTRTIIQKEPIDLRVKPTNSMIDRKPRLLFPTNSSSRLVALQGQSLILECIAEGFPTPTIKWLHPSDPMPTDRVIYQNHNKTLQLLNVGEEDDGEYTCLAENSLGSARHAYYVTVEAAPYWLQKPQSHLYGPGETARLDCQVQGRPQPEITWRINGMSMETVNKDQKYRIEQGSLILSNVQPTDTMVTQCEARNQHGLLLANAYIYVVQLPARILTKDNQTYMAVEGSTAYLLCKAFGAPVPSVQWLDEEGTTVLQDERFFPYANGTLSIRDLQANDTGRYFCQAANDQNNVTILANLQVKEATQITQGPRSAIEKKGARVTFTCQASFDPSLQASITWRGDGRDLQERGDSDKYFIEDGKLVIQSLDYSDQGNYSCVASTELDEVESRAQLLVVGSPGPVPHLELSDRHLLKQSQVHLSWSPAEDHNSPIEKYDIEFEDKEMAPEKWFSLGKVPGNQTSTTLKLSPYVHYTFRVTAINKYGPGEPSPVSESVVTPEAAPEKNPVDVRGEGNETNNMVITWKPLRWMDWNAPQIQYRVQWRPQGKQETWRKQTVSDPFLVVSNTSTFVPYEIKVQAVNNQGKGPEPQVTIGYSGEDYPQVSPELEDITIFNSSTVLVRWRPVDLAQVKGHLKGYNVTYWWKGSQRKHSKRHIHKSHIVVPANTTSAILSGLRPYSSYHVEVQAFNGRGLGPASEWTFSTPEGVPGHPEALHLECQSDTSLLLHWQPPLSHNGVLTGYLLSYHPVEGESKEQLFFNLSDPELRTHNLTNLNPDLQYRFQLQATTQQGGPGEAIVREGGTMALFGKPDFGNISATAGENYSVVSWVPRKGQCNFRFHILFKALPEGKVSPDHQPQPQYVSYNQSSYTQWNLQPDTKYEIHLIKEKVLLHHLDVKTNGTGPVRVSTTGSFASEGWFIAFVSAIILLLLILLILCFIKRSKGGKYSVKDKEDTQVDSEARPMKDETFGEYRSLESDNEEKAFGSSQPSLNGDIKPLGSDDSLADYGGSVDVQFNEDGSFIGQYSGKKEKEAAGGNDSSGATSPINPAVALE
UniProt Q60598: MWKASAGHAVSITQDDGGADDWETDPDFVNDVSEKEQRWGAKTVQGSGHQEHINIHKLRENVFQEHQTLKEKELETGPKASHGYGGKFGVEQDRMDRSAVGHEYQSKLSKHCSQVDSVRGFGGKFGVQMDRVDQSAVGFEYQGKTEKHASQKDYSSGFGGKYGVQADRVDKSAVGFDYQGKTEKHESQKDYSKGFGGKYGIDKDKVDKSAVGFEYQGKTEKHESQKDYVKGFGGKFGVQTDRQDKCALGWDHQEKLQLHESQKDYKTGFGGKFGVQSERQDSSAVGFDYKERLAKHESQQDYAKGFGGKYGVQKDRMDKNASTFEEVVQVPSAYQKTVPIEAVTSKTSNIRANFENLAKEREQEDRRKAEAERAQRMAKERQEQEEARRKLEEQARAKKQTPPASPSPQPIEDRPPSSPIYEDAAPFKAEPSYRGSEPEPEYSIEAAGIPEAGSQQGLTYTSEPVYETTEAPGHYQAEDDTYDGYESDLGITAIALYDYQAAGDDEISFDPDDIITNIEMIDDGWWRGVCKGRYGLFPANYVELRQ

No constants are given. Whether binding was seen depends on the method and setting. In cells and extracts the contact can be indirect. Some binding calls cover weakened binding; strength is not graded here.

In the case of “L1 (endogenous, mouse dendritic cells) (from UniProt P11627 20-1260)”, the binding result is “binds”.

Take “cortactin (endogenous, mouse dendritic cells) (from UniProt Q60598 1-546)”: the binding result is “binds”.

The values are drawn from publication PMC12533206.
